Assay results published in patent publication US12605653B2, “Anionic switchable hydrophilicity solvents” (QUEEN'S UNIVERSITY AT KINGSTON, priority 2022, dated 2026).

Experiment: Removal of motor oil from contaminated bottles with ASHS
Conditions: first cycle; 10 bar of CO2; 0.63 mol NaOH per mol EHA, 2.5 g water per g EHA

## CCCCC(CC)C(=O)O (stereo not shown) [EHA, 2-ethylhexanoic acid]
  carboxylic acid recovered, of initial amount: 73%
